# Results taken from the supplement of paper PMC11006884.
# Amino acid sequences for entries named in this document (tags omitted). A change or cut given only in a name is not applied to a line headed by its entry.
# UniProt Q8IZ73: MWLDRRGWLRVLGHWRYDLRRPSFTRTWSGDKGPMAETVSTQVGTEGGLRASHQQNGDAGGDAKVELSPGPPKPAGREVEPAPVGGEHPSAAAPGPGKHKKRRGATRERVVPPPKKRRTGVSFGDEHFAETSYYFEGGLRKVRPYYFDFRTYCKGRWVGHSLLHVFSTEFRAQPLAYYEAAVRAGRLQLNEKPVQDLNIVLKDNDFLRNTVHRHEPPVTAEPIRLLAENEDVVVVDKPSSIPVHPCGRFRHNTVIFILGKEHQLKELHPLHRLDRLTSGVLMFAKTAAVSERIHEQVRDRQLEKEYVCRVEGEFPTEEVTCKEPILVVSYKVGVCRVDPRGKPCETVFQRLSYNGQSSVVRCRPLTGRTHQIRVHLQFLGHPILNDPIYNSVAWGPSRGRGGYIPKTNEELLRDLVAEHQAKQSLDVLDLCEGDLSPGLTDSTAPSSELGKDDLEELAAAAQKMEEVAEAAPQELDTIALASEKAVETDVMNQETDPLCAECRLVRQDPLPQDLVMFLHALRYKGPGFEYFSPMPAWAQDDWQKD
# UniProt Q86XN8: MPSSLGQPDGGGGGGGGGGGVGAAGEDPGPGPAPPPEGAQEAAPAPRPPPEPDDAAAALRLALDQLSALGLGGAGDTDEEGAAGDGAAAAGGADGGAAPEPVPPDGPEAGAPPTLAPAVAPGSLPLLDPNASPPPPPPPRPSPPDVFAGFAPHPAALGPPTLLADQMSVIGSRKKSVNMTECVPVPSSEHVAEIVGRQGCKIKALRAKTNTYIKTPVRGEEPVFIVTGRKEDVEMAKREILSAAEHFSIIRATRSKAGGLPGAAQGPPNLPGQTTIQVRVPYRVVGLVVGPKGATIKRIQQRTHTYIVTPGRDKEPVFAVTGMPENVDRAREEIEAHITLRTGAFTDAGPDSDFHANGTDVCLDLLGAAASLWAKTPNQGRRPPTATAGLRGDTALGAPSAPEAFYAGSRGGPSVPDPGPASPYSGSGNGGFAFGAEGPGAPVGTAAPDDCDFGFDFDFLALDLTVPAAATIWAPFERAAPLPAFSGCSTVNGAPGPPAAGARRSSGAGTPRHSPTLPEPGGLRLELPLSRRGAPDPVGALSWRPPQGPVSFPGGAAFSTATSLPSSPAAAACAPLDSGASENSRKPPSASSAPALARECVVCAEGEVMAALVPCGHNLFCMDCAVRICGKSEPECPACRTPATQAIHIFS
# UniProt Q7LBC6: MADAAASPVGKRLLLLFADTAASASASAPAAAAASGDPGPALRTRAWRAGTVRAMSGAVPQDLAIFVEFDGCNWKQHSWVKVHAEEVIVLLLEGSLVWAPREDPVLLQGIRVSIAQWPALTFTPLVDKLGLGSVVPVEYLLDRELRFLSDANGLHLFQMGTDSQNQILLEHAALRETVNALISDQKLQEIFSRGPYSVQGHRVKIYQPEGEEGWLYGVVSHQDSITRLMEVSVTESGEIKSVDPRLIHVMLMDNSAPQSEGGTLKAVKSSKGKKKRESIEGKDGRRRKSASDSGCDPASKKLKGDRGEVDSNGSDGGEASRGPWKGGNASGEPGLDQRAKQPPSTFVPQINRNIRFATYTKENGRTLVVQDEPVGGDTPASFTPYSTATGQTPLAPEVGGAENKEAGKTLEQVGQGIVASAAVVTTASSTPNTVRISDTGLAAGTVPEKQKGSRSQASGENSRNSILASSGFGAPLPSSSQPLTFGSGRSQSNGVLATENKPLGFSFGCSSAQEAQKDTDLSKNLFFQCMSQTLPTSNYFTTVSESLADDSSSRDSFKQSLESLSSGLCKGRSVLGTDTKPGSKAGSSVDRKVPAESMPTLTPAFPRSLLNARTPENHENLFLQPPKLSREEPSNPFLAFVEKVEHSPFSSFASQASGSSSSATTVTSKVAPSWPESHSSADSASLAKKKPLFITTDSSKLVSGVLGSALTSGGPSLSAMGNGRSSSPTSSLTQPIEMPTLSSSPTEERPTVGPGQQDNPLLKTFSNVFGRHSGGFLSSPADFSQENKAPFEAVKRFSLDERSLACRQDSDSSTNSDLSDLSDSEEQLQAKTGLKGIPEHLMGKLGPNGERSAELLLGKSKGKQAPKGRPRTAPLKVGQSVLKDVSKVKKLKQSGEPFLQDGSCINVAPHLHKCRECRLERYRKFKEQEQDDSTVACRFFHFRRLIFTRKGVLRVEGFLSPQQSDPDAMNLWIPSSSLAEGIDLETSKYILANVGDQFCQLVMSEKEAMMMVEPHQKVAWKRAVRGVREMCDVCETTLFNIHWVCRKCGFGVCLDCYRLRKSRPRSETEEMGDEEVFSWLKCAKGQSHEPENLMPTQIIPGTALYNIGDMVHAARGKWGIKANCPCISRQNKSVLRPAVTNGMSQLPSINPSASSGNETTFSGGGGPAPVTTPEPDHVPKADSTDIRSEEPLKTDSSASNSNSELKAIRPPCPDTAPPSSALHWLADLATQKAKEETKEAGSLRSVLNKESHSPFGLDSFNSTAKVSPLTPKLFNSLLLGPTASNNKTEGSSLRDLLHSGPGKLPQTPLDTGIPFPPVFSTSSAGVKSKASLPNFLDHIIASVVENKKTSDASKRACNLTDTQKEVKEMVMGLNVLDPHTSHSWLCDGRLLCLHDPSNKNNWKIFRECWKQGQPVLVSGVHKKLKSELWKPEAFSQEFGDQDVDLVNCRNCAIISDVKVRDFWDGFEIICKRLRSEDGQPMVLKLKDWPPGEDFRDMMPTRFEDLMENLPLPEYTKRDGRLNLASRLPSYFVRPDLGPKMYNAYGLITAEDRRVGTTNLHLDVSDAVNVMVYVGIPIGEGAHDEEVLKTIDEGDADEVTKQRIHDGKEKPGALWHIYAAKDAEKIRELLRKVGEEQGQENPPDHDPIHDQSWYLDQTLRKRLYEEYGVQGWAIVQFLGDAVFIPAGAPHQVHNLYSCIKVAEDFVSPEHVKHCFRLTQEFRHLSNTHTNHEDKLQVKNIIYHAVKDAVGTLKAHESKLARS
# UniProt Q86YV9: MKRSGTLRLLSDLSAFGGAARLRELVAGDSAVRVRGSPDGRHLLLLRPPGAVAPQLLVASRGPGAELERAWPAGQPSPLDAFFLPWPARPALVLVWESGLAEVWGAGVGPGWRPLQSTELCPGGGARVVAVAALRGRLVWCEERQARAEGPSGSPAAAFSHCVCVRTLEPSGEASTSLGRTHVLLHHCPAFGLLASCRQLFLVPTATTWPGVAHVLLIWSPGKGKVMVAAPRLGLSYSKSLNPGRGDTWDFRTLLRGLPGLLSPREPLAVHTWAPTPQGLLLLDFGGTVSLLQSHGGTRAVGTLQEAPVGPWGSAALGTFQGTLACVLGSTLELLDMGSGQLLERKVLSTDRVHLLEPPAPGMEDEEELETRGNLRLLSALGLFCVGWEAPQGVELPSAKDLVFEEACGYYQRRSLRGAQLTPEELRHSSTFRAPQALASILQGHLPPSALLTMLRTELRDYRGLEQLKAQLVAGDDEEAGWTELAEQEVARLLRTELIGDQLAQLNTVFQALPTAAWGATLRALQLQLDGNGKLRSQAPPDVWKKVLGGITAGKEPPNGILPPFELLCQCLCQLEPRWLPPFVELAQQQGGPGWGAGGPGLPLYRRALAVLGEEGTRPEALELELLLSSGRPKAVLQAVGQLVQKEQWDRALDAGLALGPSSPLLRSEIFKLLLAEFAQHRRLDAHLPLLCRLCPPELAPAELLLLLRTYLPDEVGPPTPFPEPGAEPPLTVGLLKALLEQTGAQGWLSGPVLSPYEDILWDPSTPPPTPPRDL
# UniProt Q7KZF4: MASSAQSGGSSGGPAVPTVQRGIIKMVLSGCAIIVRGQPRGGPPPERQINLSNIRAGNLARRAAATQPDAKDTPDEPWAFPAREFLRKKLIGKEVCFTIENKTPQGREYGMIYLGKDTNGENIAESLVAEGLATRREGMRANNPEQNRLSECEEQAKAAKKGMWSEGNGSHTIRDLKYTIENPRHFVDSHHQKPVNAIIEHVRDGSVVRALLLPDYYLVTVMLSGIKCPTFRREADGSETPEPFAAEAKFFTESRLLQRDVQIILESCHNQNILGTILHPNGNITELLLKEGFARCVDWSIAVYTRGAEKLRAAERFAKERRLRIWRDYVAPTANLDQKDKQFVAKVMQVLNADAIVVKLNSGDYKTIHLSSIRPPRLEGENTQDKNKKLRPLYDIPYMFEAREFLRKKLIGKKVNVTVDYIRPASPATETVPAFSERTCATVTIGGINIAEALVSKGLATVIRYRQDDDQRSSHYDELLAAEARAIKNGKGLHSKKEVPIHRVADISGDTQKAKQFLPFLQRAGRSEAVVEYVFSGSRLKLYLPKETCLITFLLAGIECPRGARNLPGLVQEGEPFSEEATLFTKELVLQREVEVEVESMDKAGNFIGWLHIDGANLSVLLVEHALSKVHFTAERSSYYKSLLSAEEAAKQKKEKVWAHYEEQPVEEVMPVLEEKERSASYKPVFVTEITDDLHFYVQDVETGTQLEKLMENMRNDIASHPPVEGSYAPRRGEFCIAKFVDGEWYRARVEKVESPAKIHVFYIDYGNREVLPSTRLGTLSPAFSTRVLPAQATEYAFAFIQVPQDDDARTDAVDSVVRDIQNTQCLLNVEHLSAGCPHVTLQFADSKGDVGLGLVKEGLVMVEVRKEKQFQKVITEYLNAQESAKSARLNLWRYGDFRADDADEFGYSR
# UniProt Q86U28: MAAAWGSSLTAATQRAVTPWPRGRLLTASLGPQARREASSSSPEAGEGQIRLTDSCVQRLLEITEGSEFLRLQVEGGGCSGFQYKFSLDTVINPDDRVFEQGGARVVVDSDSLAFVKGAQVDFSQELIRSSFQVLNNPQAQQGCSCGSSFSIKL
# UniProt Q8IWC1: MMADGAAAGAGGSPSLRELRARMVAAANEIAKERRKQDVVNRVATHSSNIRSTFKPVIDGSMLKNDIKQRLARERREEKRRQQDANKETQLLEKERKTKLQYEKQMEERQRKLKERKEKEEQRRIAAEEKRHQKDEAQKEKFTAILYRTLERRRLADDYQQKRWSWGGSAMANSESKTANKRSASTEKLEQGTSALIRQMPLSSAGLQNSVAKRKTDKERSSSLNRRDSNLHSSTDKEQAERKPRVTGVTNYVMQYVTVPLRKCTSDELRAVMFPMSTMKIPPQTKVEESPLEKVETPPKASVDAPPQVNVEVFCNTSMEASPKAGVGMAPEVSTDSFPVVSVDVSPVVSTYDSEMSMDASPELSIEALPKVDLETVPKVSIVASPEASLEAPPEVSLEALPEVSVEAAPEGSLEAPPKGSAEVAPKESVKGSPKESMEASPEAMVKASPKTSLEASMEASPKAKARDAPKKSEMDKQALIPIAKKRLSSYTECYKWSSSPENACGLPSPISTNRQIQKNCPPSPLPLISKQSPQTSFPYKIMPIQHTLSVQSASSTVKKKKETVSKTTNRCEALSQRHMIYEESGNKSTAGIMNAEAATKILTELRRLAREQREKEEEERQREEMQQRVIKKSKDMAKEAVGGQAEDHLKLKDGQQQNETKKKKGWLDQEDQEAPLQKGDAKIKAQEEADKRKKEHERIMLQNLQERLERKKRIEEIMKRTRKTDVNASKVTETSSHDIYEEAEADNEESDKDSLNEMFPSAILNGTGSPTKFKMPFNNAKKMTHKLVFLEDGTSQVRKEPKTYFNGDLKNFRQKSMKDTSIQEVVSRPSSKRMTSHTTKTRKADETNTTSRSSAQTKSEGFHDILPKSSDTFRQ
# UniProt Q7RTV0, whole entry, looked up: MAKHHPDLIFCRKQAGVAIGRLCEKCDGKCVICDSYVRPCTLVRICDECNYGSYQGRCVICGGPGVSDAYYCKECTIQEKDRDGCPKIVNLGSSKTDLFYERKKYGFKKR
# UniProt Q86TU7: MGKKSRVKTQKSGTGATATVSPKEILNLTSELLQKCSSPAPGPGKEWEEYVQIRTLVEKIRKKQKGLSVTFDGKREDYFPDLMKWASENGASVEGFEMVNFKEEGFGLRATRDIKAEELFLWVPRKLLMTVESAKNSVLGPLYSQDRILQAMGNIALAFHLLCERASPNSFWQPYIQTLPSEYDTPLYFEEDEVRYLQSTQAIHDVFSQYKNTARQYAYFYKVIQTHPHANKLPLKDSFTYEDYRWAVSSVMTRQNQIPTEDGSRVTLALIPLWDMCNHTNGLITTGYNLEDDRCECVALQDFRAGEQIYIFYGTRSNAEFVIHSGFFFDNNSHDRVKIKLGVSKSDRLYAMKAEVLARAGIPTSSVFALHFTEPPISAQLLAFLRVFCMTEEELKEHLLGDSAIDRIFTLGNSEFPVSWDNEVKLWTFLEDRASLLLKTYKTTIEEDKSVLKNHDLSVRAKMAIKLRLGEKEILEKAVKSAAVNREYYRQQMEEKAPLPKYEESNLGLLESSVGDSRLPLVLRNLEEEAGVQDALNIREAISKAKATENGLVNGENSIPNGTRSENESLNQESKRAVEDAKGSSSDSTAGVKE
# The entries are a selection whose mix differs from that of the whole data set.
# Compound: COC(=O)C#Cc1ccccc1 [methyl 3-phenylpropiolate]
# Assay: log2 ratio of iodoacetamide-alkyne labeling of the cysteine site, DMSO over compound (competition); higher = stronger covalent engagement of the cysteine by the compound, active = 1 or more
# Details: 500 µM; treatment time 1 h; system: HEK293T cell lysate
# Summary of the method: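 The log2 competition ratio per cysteine is defined as mean reporter intensity in control channels over mean reporter intensity in compound channels. Lysate from HEK293T cells (2 mg/mL) received electrophile (500 µM) or vehicle for 1 h at ambient temperature, followed by iodoacetamide alkyne for 1 h. Samples were clicked to sCIP-TMT reagents, pooled, trypsin-digested overnight at 37 °C, streptavidin-enriched, acid-eluted and run on Orbitrap Eclipse LC-MS/MS with FAIMS, with quantification in FragPipe. Three replicates with duplicate channels were used, and any cysteine quantified in only one replicate was excluded.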
row,Target,log2 ratio of iodoacetamide-alkyne labeling
1,EMSY C1211 (UniProt Q7Z589),inactive: 0.802
2,RPUSD2 C246 (UniProt Q8IZ73),inactive: -0.128
3,MEX3D C362 (UniProt Q86XN8),inactive: 0.335
4,UniProt Q7LBC6_C1470,inactive: 0.686
5,ZC3HAV1 C645 (UniProt Q7Z2W4),inactive: 0.634
6,PHF6 C280 (UniProt Q8IWS0),inactive: -0.0965
7,UniProt Q86Y56_C409,inactive: 0.492
8,IRF2BP1 C207 (UniProt Q8IU81),inactive: 0.142
9,UniProt Q86Y56_C365,inactive: 0.103
10,UniProt Q7Z5K2_C94,inactive: 0.262
11,DCP2 C207 (UniProt Q8IU60),inactive: -0.0161
12,HPS6 C408 (UniProt Q86YV9),inactive: 0.769
13,SESTD1 C618 (UniProt Q86VW0),inactive: 0.161
14,UniProt Q7Z2T5_C265,inactive: 0.161
15,TBC1D1 C1160 (UniProt Q86TI0),inactive: 0.493
16,POGZ C1267 (UniProt Q7Z3K3),inactive: 0.673
17,UniProt Q7Z2T5_C239,active: 1.28
18,THOC6 C279 (UniProt Q86W42),inactive: 0.192
19,MEPCE C429 (UniProt Q7L2J0),inactive: 0.486

row,Target,log2 ratio of iodoacetamide-alkyne labeling
1,ALDH16A1 C28 (UniProt Q8IZ83),inactive: 0.336
2,LUZP1 C594 (UniProt Q86V48),active: 1.19
3,UniProt Q7Z434_C133,inactive: 0.45
4,SND1 C228 (UniProt Q7KZF4),inactive: 0.17
5,ISCA2 C146 (UniProt Q86U28),active: 1.59
6,MAP7D3 C315 (UniProt Q8IWC1),inactive: -0.125
7,RBBP6 C44 (UniProt Q7Z6E9),inactive: 0.669
8,UniProt Q7RTV0_C75,inactive: -0.269
9,ASRGL1 C115 (UniProt Q7L266),inactive: 0.532
10,UniProt Q86UW7_C639,inactive: -0.0248
11,SETD3 C36 (UniProt Q86TU7),inactive: 0.0594
12,DIS3L2 C216 (UniProt Q8IYB7),inactive: 0.561
13,UniProt Q7Z5K2_C251,inactive: 0.11
14,HUWE1 C790 (UniProt Q7Z6Z7),inactive: 0.465
15,IRF2BP2 C40 (UniProt Q7Z5L9),inactive: 0.276
16,GSPT2 C93 (UniProt Q8IYD1),inactive: 0.616
17,UniProt Q7LBC6_C1451,inactive: 0.513
18,SND1 C560 (UniProt Q7KZF4),inactive: 0.522

# Laid out differently: results already given.
row	Target	log2 ratio of iodoacetamide-alkyne labeling
5	ISCA2 C146 (UniProt Q86U28)	active: 1.59
14	HUWE1 C790 (UniProt Q7Z6Z7)	inactive: 0.465
